From the supplement of paper PMC11732987, “Enantioselective OTUD7B fragment discovery through chemoproteomics screening and high-throughput optimisation” (Communications Chemistry, 2025)
The other results are listed elsewhere or left out. The data scatter; read single values as rough.

Sequences of proteins named here, by UniProt entry; tags and fusion partners are left off. A change or cut given only in a name is not applied to a line headed by its entry.
UniProt Q9Y6J0: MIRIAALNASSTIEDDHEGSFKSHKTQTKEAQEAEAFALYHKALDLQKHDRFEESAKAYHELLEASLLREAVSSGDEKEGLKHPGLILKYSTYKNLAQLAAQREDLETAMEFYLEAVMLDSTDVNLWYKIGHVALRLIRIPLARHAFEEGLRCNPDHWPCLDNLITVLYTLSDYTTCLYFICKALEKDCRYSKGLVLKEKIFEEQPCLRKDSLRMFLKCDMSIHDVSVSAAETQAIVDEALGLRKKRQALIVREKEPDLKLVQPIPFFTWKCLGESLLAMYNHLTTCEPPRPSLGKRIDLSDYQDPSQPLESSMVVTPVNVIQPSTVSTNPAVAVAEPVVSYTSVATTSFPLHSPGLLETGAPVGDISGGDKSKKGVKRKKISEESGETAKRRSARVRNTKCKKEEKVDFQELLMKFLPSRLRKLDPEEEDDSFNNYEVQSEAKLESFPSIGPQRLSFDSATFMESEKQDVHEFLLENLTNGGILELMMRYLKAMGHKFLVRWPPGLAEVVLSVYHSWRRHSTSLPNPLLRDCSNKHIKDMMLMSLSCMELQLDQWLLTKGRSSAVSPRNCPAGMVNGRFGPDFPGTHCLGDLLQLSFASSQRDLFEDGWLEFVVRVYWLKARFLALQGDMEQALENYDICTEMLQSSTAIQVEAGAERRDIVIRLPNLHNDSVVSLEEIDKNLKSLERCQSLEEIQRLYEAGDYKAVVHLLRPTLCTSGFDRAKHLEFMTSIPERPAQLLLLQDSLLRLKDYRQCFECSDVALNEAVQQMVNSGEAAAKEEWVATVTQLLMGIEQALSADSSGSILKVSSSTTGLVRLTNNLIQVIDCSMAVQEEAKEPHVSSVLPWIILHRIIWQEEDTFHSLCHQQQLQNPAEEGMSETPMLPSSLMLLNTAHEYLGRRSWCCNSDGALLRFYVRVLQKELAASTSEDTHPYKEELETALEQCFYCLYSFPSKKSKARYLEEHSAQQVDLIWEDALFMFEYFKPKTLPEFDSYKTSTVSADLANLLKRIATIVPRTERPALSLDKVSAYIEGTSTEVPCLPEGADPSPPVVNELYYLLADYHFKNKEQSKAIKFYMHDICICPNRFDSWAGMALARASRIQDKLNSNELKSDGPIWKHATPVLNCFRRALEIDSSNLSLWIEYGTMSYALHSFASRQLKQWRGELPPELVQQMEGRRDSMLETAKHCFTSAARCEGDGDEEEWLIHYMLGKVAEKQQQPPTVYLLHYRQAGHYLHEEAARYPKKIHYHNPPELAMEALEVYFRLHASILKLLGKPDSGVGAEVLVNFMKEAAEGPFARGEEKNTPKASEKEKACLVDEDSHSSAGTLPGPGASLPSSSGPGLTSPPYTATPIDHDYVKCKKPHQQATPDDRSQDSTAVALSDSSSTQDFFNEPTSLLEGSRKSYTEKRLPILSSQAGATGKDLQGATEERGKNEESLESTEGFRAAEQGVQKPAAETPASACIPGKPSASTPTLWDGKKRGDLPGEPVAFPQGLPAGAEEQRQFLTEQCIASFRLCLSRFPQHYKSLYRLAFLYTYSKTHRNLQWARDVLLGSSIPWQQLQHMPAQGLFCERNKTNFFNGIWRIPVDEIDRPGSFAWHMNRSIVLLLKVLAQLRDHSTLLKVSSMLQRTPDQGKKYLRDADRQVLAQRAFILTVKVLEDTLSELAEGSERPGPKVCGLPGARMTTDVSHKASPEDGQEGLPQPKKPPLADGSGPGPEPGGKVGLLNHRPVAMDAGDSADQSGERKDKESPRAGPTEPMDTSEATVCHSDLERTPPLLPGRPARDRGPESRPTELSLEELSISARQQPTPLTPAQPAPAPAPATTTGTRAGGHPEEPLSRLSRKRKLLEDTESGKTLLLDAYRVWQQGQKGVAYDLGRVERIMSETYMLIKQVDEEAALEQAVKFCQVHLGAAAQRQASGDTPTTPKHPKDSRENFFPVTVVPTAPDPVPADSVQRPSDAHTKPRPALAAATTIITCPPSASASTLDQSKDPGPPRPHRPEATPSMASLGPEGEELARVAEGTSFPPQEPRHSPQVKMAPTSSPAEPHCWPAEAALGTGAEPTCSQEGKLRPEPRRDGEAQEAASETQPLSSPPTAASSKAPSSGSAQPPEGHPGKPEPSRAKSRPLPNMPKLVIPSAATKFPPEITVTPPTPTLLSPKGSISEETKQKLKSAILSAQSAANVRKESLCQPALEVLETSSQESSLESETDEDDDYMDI
UniProt Q14137: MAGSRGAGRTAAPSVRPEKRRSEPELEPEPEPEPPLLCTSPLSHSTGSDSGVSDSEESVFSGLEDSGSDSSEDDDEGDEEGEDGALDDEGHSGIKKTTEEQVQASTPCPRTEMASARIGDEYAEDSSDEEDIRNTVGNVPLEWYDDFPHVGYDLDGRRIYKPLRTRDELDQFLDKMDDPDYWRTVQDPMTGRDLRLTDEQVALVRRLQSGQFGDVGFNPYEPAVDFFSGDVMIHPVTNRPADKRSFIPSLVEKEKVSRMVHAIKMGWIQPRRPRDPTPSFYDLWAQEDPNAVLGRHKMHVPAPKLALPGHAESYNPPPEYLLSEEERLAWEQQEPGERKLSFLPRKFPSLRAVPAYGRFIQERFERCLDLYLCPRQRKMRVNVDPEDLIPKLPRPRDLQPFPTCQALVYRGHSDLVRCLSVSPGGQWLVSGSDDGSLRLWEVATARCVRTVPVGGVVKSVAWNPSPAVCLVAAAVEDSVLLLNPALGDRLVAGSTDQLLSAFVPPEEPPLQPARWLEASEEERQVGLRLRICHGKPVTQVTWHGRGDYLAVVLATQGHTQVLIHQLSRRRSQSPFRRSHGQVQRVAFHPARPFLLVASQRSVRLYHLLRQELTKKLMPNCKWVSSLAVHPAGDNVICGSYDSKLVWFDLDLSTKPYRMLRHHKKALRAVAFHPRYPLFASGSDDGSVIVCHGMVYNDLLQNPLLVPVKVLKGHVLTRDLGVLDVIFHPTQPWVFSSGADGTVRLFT
UniProt Q9H8G2: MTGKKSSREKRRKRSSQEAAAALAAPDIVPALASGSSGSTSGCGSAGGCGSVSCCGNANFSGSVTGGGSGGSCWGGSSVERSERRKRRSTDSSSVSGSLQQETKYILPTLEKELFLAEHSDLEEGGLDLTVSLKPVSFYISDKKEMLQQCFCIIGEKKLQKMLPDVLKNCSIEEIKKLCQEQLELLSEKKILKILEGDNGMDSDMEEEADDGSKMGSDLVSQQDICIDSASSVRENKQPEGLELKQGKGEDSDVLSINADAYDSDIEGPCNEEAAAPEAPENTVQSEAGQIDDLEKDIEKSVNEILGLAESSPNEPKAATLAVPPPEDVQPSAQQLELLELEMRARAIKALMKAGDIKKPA
UniProt O14981: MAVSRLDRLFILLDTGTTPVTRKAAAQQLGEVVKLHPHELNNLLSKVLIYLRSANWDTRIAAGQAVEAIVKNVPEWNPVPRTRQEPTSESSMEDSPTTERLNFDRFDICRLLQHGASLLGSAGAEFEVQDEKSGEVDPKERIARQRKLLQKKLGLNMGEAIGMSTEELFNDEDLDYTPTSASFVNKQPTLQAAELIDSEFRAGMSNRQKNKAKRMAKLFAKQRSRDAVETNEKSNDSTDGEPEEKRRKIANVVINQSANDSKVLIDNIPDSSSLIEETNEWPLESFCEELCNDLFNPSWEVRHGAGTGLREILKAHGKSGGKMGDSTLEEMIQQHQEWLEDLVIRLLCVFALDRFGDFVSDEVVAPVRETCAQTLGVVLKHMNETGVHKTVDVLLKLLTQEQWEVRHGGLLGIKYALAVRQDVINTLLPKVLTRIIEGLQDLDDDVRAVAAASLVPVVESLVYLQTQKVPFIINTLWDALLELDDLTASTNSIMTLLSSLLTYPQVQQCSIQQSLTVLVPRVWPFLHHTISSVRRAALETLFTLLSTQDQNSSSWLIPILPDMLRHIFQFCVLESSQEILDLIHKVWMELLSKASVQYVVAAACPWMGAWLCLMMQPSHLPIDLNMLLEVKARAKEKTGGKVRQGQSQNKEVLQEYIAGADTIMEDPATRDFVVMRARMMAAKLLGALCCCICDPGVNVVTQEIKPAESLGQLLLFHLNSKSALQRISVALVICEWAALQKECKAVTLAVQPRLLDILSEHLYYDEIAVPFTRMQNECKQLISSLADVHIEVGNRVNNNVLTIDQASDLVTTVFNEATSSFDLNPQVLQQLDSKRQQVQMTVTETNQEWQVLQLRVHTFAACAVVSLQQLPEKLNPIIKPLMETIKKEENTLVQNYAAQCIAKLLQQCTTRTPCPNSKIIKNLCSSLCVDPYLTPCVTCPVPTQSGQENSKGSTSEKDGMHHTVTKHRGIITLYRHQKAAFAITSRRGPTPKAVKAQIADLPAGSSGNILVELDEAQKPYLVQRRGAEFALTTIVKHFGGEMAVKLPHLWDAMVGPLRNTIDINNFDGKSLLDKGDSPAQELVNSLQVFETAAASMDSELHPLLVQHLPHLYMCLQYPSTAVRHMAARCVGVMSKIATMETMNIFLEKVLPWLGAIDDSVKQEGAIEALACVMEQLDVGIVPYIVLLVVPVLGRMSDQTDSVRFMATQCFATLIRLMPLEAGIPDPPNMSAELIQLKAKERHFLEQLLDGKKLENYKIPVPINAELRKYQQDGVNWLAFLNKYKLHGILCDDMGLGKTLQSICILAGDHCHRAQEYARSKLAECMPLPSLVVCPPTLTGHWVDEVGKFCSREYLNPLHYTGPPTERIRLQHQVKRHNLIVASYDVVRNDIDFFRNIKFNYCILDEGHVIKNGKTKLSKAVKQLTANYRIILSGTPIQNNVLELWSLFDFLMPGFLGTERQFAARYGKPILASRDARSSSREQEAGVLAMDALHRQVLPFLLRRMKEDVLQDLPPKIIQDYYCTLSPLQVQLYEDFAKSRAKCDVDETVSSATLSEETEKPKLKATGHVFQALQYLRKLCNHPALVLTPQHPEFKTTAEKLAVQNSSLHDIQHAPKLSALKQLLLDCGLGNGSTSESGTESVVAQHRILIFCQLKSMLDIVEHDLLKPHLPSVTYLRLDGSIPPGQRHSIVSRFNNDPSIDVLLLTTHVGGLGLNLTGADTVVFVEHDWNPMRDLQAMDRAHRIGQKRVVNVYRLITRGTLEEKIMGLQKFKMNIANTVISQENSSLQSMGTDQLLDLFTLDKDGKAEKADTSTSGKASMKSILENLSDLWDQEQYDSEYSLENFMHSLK

Tests used:
[1] = compound: ClCC(=O)N[C@@H]1CCCc2ccccc12; experiment: log2 mean competition ratio of IA-DTB cysteine labelling (DMSO/compound) (log2 ratio); higher = stronger cysteine engagement by compound; details: treatment time: 4 h, cell line lysate: HEK293T
Description: (§1)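 IA-DTB competitive cysteine chemoproteomics in HEK293T RIPA lysate. Lysates were treated with compound 29 or 30 at 50 or 200 µM for 4 h, then IA-DTB (500 µM, 1 h), trypsin-digested, NeutrAvidin-enriched and analysed by diaPASEF. Competition ratio = intensity DMSO / intensity compound (n=4 treated, n=64 DMSO); binding: mean log2 CR ≥ 1 and p ≤ 0.05 plus QC filters. Target is the cysteine site.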

[2] = compound: ClCC(=O)N[C@H]1CCCc2ccccc12; experiment: as above; details: treatment time: 4 h, cell line lysate: HEK293T
Description: as §1

| Target | log2 mean competition ratio ([1]; 50 µM) | log2 mean competition ratio ([1]; 200 µM) | log2 mean competition ratio ([2]; 50 µM) | log2 mean competition ratio ([2]; 200 µM) |
| --- | --- | --- | --- | --- |
| CABIN1 C690 (UniProt Q9Y6J0) | 0.0199 | 0.184 | -0.296 | -0.00684 |
| BOP1 C108 (UniProt Q14137) | -0.114 | -0.0969 | -0.0814 | -0.0236 |
| CAAP1 C170 (UniProt Q9H8G2) | -0.115 | -0.175 | -0.0324 | -0.16 |
| BTAF1 C1401 (UniProt O14981) | 0.065 | -0.36 | -0.0597 | -0.407 |
